Results deposited as PubChem BioAssay AID1259254 (NCATS, 2017).
Shown is one part, drawn at random, of about 59,000 reagents. About 1,550 of them (2.6%) were called active. 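G2 share is only a proxy for re-replication; each gene was hit by three separate siRNAs, and active genes were retested.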 Raw values are not corrected between plates. A number with no mark means an inactive call. The numbers tell different reagents against one gene apart. The record does not give: the amount of reagent.

Aim: 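Genome-wide screen for genes that prevent DNA re-replication in cancer cells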 (primary screen)
Cells: human HCT116 colorectal cancer cells
Reagents: single siRNA against human genes
Time to read-out: 3 days
Detection: 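Nuclei stained with Hoechst and imaged; cell-cycle phase assigned by DNA content; G2 share scaled per plate, non-targeting siRNA 0%, GMNN siRNA 100%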
Direction: G2 robust z-score and G2 cells, % of GMNN control: higher = more G2 cells, more excess DNA replication; raw share of cells in G2: higher = larger share of cells with G2 DNA content
Call rule: 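An siRNA counts as active if its G2 robust z-score lies at least 5 MADs above the screen median; here such calls match roughly 38% of GMNN control or more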

| gene knocked down | reagent no. | G2 robust z-score | G2 cells, % of GMNN control | raw share of cells in G2 (%) |
| --- | --- | --- | --- | --- |
| PMEPA1 | 1 | 0.178 | 4.22 | 6.01 |
| PMEPA1 | 2 | 1.12 | 10.9 | 9.64 |
| PMEPA1 | 3 | 0.653 | 7.56 | 5.42 |
| TTLL2 | 1 | 1.5 | 13.5 | 8.61 |
| TTLL2 | 2 | 1.04 | 10.3 | 6.51 |
| TTLL2 | 3 | -0.816 | -2.77 | 1.56 |
| CCL8 | 1 | 1.02 | 10.1 | 9.09 |
| CCL8 | 2 | -0.374 | 0.335 | 4.07 |
| CCL8 | 3 | -1.01 | -4.12 | 3.14 |
| ADCY10 | 1 | -0.622 | -1.41 | 5.81 |
| ADCY10 | 2 | -0.0385 | 2.7 | 5.41 |
| ADCY10 | 3 | -0.213 | 1.47 | 4.95 |
| PFDN6 | 1 | 0.41 | 5.85 | 7.97 |
| PFDN6 | 2 | 0.332 | 5.3 | 6.16 |
| PFDN6 | 3 | 0.22 | 4.51 | 5.05 |
| HYAL1 | 1 | 0.066 | 3.43 | 6.29 |
| HYAL1 | 2 | 0.384 | 5.67 | 7.84 |
| HYAL1 | 3 | -1.08 | -4.65 | 2.5 |
| XAGE3 | 1 | -0.333 | 0.627 | 3.83 |
| XAGE3 | 2 | -0.0543 | 2.59 | 3.83 |
| XAGE3 | 3 | 0.166 | 4.13 | 4.07 |
| GTPBP10 | 1 | -0.028 | 2.77 | 6.96 |
| GTPBP10 | 2 | 1.46 | 13.3 | 10.7 |
| GTPBP10 | 3 | -0.518 | -0.677 | 4.22 |
| PATE4 | 1 | -0.889 | -3.29 | 2.61 |
| PATE4 | 2 | 0.637 | 7.45 | 6.47 |
| PATE4 | 3 | 2.68 | 21.8 | 13.8 |
| KRT31 | 1 | -0.79 | -2.59 | 4.1 |
| KRT31 | 2 | 0.852 | 8.96 | 7.49 |
| KRT31 | 3 | -0.658 | -1.66 | 5.05 |
